The nature of data set [1]: Melamine formaldehyde PMC Headspace Response Ratio. Conditions: for Comment Code: Melamine formaldehyde PMC Headspace Response Ratio: code letter I.
The nature of data set [2]: Melamine formaldehyde PMC leakage. Conditions: for Comment Code: Melamine formaldehyde PMC leakage: code letter J.
The mark [3] stands for this setting: class code letter within Comment Code.

Read-outs that look alike come from different tables or passages of the source. Some compounds share one wording; it may come from a single statement.

As for `CC(C)=CCCC(C)CCO` (stereo not shown) [Material 899], the “Comment Code: Melamine formaldehyde PMC Headspace Response Ratio” value in data set [1] is listed as “I (Melamine formaldehyde PMC Headspace Response Ratio greater than or equal to 10)”. Also, the “Comment Code: Melamine formaldehyde PMC leakage” value in data set [2] is given as “J (Melamine formaldehyde PMC leakage less than or equal to 5%)”.
For `CC1CC(=O)CC(C)(C)C1` (stereo not shown) [Material 439] the same measures were “I (Melamine formaldehyde PMC Headspace Response Ratio greater than or equal to 10)” and “J (Melamine formaldehyde PMC leakage less than or equal to 5%)”.
Taken in the same sequence, the figures for `CCC(C)C(=O)OC(C)C` (stereo not shown) [Material 198] were “I (Melamine formaldehyde PMC Headspace Response Ratio greater than or equal to 10)” and “J (Melamine formaldehyde PMC leakage less than or equal to 5%)”.
Consider `CC12CCC(CC1)C(C)(C)S2` [Material 873], for which the “Melamine formaldehyde PMC Headspace Response Ratio (Comment Code I)” value in data set [1] is “I (Melamine formaldehyde PMC Headspace Response Ratio greater than or equal to 10)”. In data set [2], the “Melamine formaldehyde PMC leakage (Comment Code J)” value is “J (Melamine formaldehyde PMC leakage less than or equal to 5%)”.
Take `CCC12CC3CC1C2C3OC` (stereo not shown) [Material 65]: the “Melamine formaldehyde PMC Headspace Response Ratio (Comment Code I)” value in data set [1] (setting [3]) is “I (Melamine formaldehyde PMC Headspace Response Ratio greater than or equal to 10)”. Besides, the “Melamine formaldehyde PMC leakage (Comment Code J)” value in data set [2] (setting [3]) is on record as “J (Melamine formaldehyde PMC leakage less than or equal to 5%)”.
Take `CC(C)=CCCC(C)CC=O` (stereo not shown) [Material 889]: the “Comment Code: Melamine formaldehyde PMC Headspace Response Ratio” value in data set [1] is reported as “I (Melamine formaldehyde PMC Headspace Response Ratio greater than or equal to 10)”. Besides, the “Comment Code: Melamine formaldehyde PMC leakage” value in data set [2] is reported as “J (Melamine formaldehyde PMC leakage less than or equal to 5%)”.
Taken in the same sequence, the figures for `CC(C)=CCCC(C)CCO` (stereo not shown) [Material 900] were “I (Melamine formaldehyde PMC Headspace Response Ratio greater than or equal to 10)” and “J (Melamine formaldehyde PMC leakage less than or equal to 5%)”.
On to `Cc1cccc(CC(C)(C)CO)c1` [Material 140], for which, in data set [1] (setting [3]), the “Melamine formaldehyde PMC Headspace Response Ratio (Comment Code I)” value is “I (Melamine formaldehyde PMC Headspace Response Ratio greater than or equal to 10)”. Also, the “Melamine formaldehyde PMC leakage (Comment Code J)” value in data set [2] (setting [3]) is listed as “J (Melamine formaldehyde PMC leakage less than or equal to 5%)”.
For `CCC(C)(O)CCC=C(C)C` (stereo not shown) [Material 449] the same measures were “I (Melamine formaldehyde PMC Headspace Response Ratio greater than or equal to 10)” and “J (Melamine formaldehyde PMC leakage less than or equal to 5%)”.
Turning to `COC(OC)C(C)(C)CC=C(C)C` [Material 93], the “Melamine formaldehyde PMC Headspace Response Ratio (Comment Code I)” value in data set [1] (setting [3]) is on record as “I (Melamine formaldehyde PMC Headspace Response Ratio greater than or equal to 10)”. Further, the “Melamine formaldehyde PMC leakage (Comment Code J)” value in data set [2] (setting [3]) is “J (Melamine formaldehyde PMC leakage less than or equal to 5%)”.
As for `CC=CC(=O)C1C(C)=CCCC1(C)C` (stereo not shown) [Material 880], the “Comment Code: Melamine formaldehyde PMC Headspace Response Ratio” value in data set [1] is “I (Melamine formaldehyde PMC Headspace Response Ratio greater than or equal to 10)”. Also, the “Comment Code: Melamine formaldehyde PMC leakage” value in data set [2] was “J (Melamine formaldehyde PMC leakage less than or equal to 5%)”.
For the compound `CCOC(=O)[C@@H]1[C@@H](C)CCCC1(C)C` [Material 1058], the “Comment Code: Melamine formaldehyde PMC Headspace Response Ratio” value in data set [1] is given as “I (Melamine formaldehyde PMC Headspace Response Ratio greater than or equal to 10)”. The “Comment Code: Melamine formaldehyde PMC leakage” value in data set [2] is reported as “J (Melamine formaldehyde PMC leakage less than or equal to 5%)”.
Take `C=CC1(C)CCC(C(C)(C)O)O1` (stereo not shown) [Material 155]: the “Melamine formaldehyde PMC Headspace Response Ratio (Comment Code I)” value in data set [1] (setting [3]) is given as “I (Melamine formaldehyde PMC Headspace Response Ratio greater than or equal to 10)”. In addition, in data set [2] (setting [3]), the “Melamine formaldehyde PMC leakage (Comment Code J)” value is on record as “J (Melamine formaldehyde PMC leakage less than or equal to 5%)”.
Taken in the same sequence, the figures for `C=C(C)C1CC=C(C)C(O)C1` (stereo not shown) [Material 170] were “I (Melamine formaldehyde PMC Headspace Response Ratio greater than or equal to 10)” and “J (Melamine formaldehyde PMC leakage less than or equal to 5%)”.
In the case of `C/C=C\C(=O)/C(C)=C(/C)C(C)C` [Material 986], in data set [1], the “Comment Code: Melamine formaldehyde PMC Headspace Response Ratio” value is “I (Melamine formaldehyde PMC Headspace Response Ratio greater than or equal to 10)”. The “Comment Code: Melamine formaldehyde PMC leakage” value in data set [2] is “J (Melamine formaldehyde PMC leakage less than or equal to 5%)”.
In the case of `C=C(C)C1CC=C(C)CC1` (stereo not shown) [Material 702], the “Melamine formaldehyde PMC Headspace Response Ratio (Comment Code I)” value in data set [1] is recorded as “I (Melamine formaldehyde PMC Headspace Response Ratio greater than or equal to 10)”. Besides, in data set [2], the “Melamine formaldehyde PMC leakage (Comment Code J)” value was “J (Melamine formaldehyde PMC leakage less than or equal to 5%)”.
For `C=C1C=CC(C(C)C)CC1` (stereo not shown) [Material 619], the “Comment Code: Melamine formaldehyde PMC Headspace Response Ratio” value in data set [1] is “I (Melamine formaldehyde PMC Headspace Response Ratio greater than or equal to 10)”. Further, in data set [2], the “Comment Code: Melamine formaldehyde PMC leakage” value is listed as “J (Melamine formaldehyde PMC leakage less than or equal to 5%)”.
Regarding `C=C(C)C1CCC2(C)OC2C1` (stereo not shown) [Material 527], in data set [1] (setting [3]), the “Melamine formaldehyde PMC Headspace Response Ratio (Comment Code I)” value is recorded as “I (Melamine formaldehyde PMC Headspace Response Ratio greater than or equal to 10)”. The “Melamine formaldehyde PMC leakage (Comment Code J)” value in data set [2] (setting [3]) is recorded as “J (Melamine formaldehyde PMC leakage less than or equal to 5%)”.
For `CCC(C)CCCC(C)C=O` (stereo not shown) [Material 866], the “Melamine formaldehyde PMC Headspace Response Ratio (Comment Code I)” value in data set [1] is on record as “I (Melamine formaldehyde PMC Headspace Response Ratio greater than or equal to 10)”. Further, the “Melamine formaldehyde PMC leakage (Comment Code J)” value in data set [2] was “J (Melamine formaldehyde PMC leakage less than or equal to 5%)”.
Take `CC=CC(=O)C1C(C)C=CCC1(C)C` (stereo not shown) [Material 466]: the “Melamine formaldehyde PMC Headspace Response Ratio (Comment Code I)” value in data set [1] (setting [3]) is “I (Melamine formaldehyde PMC Headspace Response Ratio greater than or equal to 10)”. Further, the “Melamine formaldehyde PMC leakage (Comment Code J)” value in data set [2] (setting [3]) was “J (Melamine formaldehyde PMC leakage less than or equal to 5%)”.
For the compound `CCC(C)CCC(C)(CC)OC(C)=O` (stereo not shown) [Material 821], the “Melamine formaldehyde PMC Headspace Response Ratio (Comment Code I)” value in data set [1] is on record as “I (Melamine formaldehyde PMC Headspace Response Ratio greater than or equal to 10)”. In data set [2], the “Melamine formaldehyde PMC leakage (Comment Code J)” value is given as “J (Melamine formaldehyde PMC leakage less than or equal to 5%)”.
Taken in the same sequence, the figures for `CC1(C)C2CC=C(CC=O)C1C2` (stereo not shown) [Material 973] were “I (Melamine formaldehyde PMC Headspace Response Ratio greater than or equal to 10)” and “J (Melamine formaldehyde PMC leakage less than or equal to 5%)”.
Consider `C=C(C)[C@@H]1CC=C(C)C(=O)C1` [Material 169], for which the “Comment Code: Melamine formaldehyde PMC Headspace Response Ratio” value in data set [1] was “I (Melamine formaldehyde PMC Headspace Response Ratio greater than or equal to 10)”. Also, the “Comment Code: Melamine formaldehyde PMC leakage” value in data set [2] is reported as “J (Melamine formaldehyde PMC leakage less than or equal to 5%)”.
For `CC1=CCC(CC#N)C1(C)C` (stereo not shown) [Material 585] the same measures were “I (Melamine formaldehyde PMC Headspace Response Ratio greater than or equal to 10)” and “J (Melamine formaldehyde PMC leakage less than or equal to 5%)”.
Taken in the same sequence, the figures for `CC/C=C\CC1=C(C)CCC1=O` [Material 526] were “I (Melamine formaldehyde PMC Headspace Response Ratio greater than or equal to 10)” and “J (Melamine formaldehyde PMC leakage less than or equal to 5%)”.
As for `CC12CCC(CC1)C(C)(C)O2` [Material 376], the “Comment Code: Melamine formaldehyde PMC Headspace Response Ratio” value in data set [1] was “I (Melamine formaldehyde PMC Headspace Response Ratio greater than or equal to 10)”. Moreover, the “Comment Code: Melamine formaldehyde PMC leakage” value in data set [2] was “J (Melamine formaldehyde PMC leakage less than or equal to 5%)”.
For the compound `C=C(C)C1CCC(C)C(OC(C)=O)C1` (stereo not shown) [Material 444], the “Melamine formaldehyde PMC Headspace Response Ratio (Comment Code I)” value in data set [1] (setting [3]) is reported as “I (Melamine formaldehyde PMC Headspace Response Ratio greater than or equal to 10)”. In data set [2] (setting [3]), the “Melamine formaldehyde PMC leakage (Comment Code J)” value is recorded as “J (Melamine formaldehyde PMC leakage less than or equal to 5%)”.
Taken in the same sequence, the figures for `C=C1CCCC(C)(C)C1C(=O)C=CC` (stereo not shown) [Material 331] were “I (Melamine formaldehyde PMC Headspace Response Ratio greater than or equal to 10)” and “J (Melamine formaldehyde PMC leakage less than or equal to 5%)”.
`C=CC1(C)CCC(C(C)(C)O)O1` (stereo not shown) [Material 156]: in data set [1] (setting [3]), the “Melamine formaldehyde PMC Headspace Response Ratio (Comment Code I)” value is “I (Melamine formaldehyde PMC Headspace Response Ratio greater than or equal to 10)”. In addition, the “Melamine formaldehyde PMC leakage (Comment Code J)” value in data set [2] (setting [3]) was “J (Melamine formaldehyde PMC leakage less than or equal to 5%)”.
As to `CNC(=O)C(C)(C(C)C)C(C)C` [Material 846], the “Comment Code: Melamine formaldehyde PMC Headspace Response Ratio” value in data set [1] is recorded as “I (Melamine formaldehyde PMC Headspace Response Ratio greater than or equal to 10)”. The “Comment Code: Melamine formaldehyde PMC leakage” value in data set [2] is recorded as “J (Melamine formaldehyde PMC leakage less than or equal to 5%)”.
Turning to `C=C(C)C1CC=C(C)CC1` (stereo not shown) [Material 424], in data set [1] (setting [3]), the “Melamine formaldehyde PMC Headspace Response Ratio (Comment Code I)” value is recorded as “I (Melamine formaldehyde PMC Headspace Response Ratio greater than or equal to 10)”. In addition, in data set [2] (setting [3]), the “Melamine formaldehyde PMC leakage (Comment Code J)” value was “J (Melamine formaldehyde PMC leakage less than or equal to 5%)”.
Turning to `CC(C)CCOC(=O)C(C)C` [Material 239], the “Comment Code: Melamine formaldehyde PMC Headspace Response Ratio” value in data set [1] was “I (Melamine formaldehyde PMC Headspace Response Ratio greater than or equal to 10)”. Further, the “Comment Code: Melamine formaldehyde PMC leakage” value in data set [2] is given as “J (Melamine formaldehyde PMC leakage less than or equal to 5%)”.
For the compound `CC(C)CC1CC(C)(O)CCO1` (stereo not shown) [Material 350], the “Melamine formaldehyde PMC Headspace Response Ratio (Comment Code I)” value in data set [1] (setting [3]) is on record as “I (Melamine formaldehyde PMC Headspace Response Ratio greater than or equal to 10)”. For the same compound, the “Melamine formaldehyde PMC leakage (Comment Code J)” value in data set [2] (setting [3]) is reported as “J (Melamine formaldehyde PMC leakage less than or equal to 5%)”.
For `Cc1ccc(C(C)C)cc1` [Material 940], in data set [1], the “Comment Code: Melamine formaldehyde PMC Headspace Response Ratio” value is reported as “I (Melamine formaldehyde PMC Headspace Response Ratio greater than or equal to 10)”. The “Comment Code: Melamine formaldehyde PMC leakage” value in data set [2] is “J (Melamine formaldehyde PMC leakage less than or equal to 5%)”.
`CC1=CC(C)C(C=O)C(C)C1` (stereo not shown) [Material 218]: in data set [1] (setting [3]), the “Melamine formaldehyde PMC Headspace Response Ratio (Comment Code I)” value was “I (Melamine formaldehyde PMC Headspace Response Ratio greater than or equal to 10)”. Also, the “Melamine formaldehyde PMC leakage (Comment Code J)” value in data set [2] (setting [3]) was “J (Melamine formaldehyde PMC leakage less than or equal to 5%)”.

For the origin of these results see patent publication US20160090556A1, “PRODUCTS COMPRISING MALODOR REDUCTION MATERIALS” (The Procter & Gamble Company, priority 2014, published 2016).
